# Laboratory results taken from patent publication US11795615B2 (priority 2015, dated 2023).
# Experiments:
# [1] = Side by side bleaching of Kraft pulp, hand sheet Kappa number, pH and ORP
# [2] = TOX formation test in pulp bleaching; settings: 50° C., 5% pulp consistency, 1.0% NaCl, 2 hour
Molecule,"Final pH ([1]; 4.0 g/L PAA equiv., initial pH 7.0, 30 min)","Final pH ([1]; 4.0 g/L PAA equiv., initial pH 8.0, 30 min)","Final pH ([1]; 4.0 g/L PAA equiv., initial pH 8.9, 30 min)",sodium hydroxide needed to adjust pH ([1]; 4.0 g/L peracetic acid solution up to pH 7.0) [g/L],"Final pH ([1]; 1.13 g/L PAA equiv., initial pH 8.2, 30 min)",sodium hydroxide consumed ([1]; bleaching with 1.0 g/L chlorine dioxide at pH 8),Normalized TOX [2],"TOX ([2]; 4000 mg/L (peracetate, PAA) or 1000 mg/L (ClO2)) [mg/L]"
"CC(=O)OO [PAA, peracetic acid]",7.0,8.0,8.8,10.9,,,,
chlorine dioxide [ClO2],,,,,6.4,about 1.5 g/L,17.7 mg/L per 1000 mg/L oxidant,17.7
